PubChem BioAssay AID1508597 | Cure First | 2020
Test: 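Knock-downs altering ovarian cancer cell survival with or without PARP inhibitor rucaparib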 (primary screen). Cell system: human ovarian carcinoma lines grown from tumours: OCI-P5x (papillary serous) and OCI-C5x (clear cell). Reagent: siRNA pool against human genes, 1.25 pmol siRNA per well. Timing: 72 h or 96 h, depending on the cell culture. Conditions: rucaparib 20 µM (about IC30) or vehicle, present until read-out. Rucaparib or vehicle: Rucaparib. Cell line: OCI-P5x (serous). Measured: 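Luminescent ATP-based viability assay read 72 or 96 h after transfection, depending on culture, given as normalised percent viability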. Reading the numbers: viability, normalised: higher = more viable cells remaining. Rule for the call: 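Active when normalised viability falls below 80 percent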. Calls: active = viability under 80%; inactive = viability 80% or more.
This is a random part of the about 2,100 reagents, under one of the conditions tested. 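Calls flag viability under 80% in either arm, not effects specific to rucaparib; the reference for percent is not stated.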 Reagents against one gene are numbered here. Some reagents were tested in more than one well and are listed for each. Not given: the 100% reference.

target gene | reagent | technical replicate | viability, normalised (%) | activity call
RAD9A (RAD9 checkpoint clamp component A) | 1 | 1 | 92 | inactive
RAD9A (RAD9 checkpoint clamp component A) | 1 | 2 | 117 | inactive
RAD9A (RAD9 checkpoint clamp component A) | 1 | 3 | 70.2 | active
TAOK1 (TAO kinase 1) | 1 | 1 | 110 | inactive
TAOK1 (TAO kinase 1) | 1 | 2 | 122 | inactive
TAOK1 (TAO kinase 1) | 1 | 3 | 94 | inactive
NOTCH1 (notch receptor 1) | 1 | 1 | 45.7 | active
NOTCH1 (notch receptor 1) | 1 | 2 | 61.5 | active
NOTCH1 (notch receptor 1) | 1 | 3 | 51.9 | active
FOXP3 (forkhead box P3) | 1 | 1 | 95.3 | inactive
FOXP3 (forkhead box P3) | 1 | 2 | 101 | inactive
FOXP3 (forkhead box P3) | 1 | 3 | 104 | inactive
ABRAXAS1 (abraxas 1, BRCA1 A complex subunit) | 1 | 1 | 46.8 | active
ABRAXAS1 (abraxas 1, BRCA1 A complex subunit) | 1 | 2 | 68.4 | active
ABRAXAS1 (abraxas 1, BRCA1 A complex subunit) | 1 | 3 | 61.2 | active
ABRAXAS1 (abraxas 1, BRCA1 A complex subunit) | 2 | 1 | 75.9 | active
ABRAXAS1 (abraxas 1, BRCA1 A complex subunit) | 2 | 2 | 89.4 | inactive
ABRAXAS1 (abraxas 1, BRCA1 A complex subunit) | 2 | 3 | 79.5 | active
ZNF830 (zinc finger protein 830) | 1 | 1 | 51.8 | active
ZNF830 (zinc finger protein 830) | 1 | 2 | 52.3 | active
ZNF830 (zinc finger protein 830) | 1 | 3 | 53.9 | active
FANCM (FA complementation group M) | 1 | 1 | 67.2 | active
FANCM (FA complementation group M) | 1 | 1 | 82 | inactive
FANCM (FA complementation group M) | 1 | 2 | 69.6 | active
FANCM (FA complementation group M) | 1 | 2 | 82.2 | inactive
FANCM (FA complementation group M) | 1 | 3 | 79.8 | active
FANCM (FA complementation group M) | 1 | 3 | 71.5 | active
HDAC3 (histone deacetylase 3) | 1 | 1 | 59.6 | active
HDAC3 (histone deacetylase 3) | 1 | 2 | 76.6 | active
HDAC3 (histone deacetylase 3) | 1 | 3 | 49.8 | active
DMC1 (DNA meiotic recombinase 1) | 1 | 1 | 79.2 | active
DMC1 (DNA meiotic recombinase 1) | 1 | 2 | 63.6 | active
DMC1 (DNA meiotic recombinase 1) | 1 | 3 | 49.9 | active
UNG (uracil DNA glycosylase) | 1 | 1 | 110 | inactive
UNG (uracil DNA glycosylase) | 1 | 2 | 105 | inactive
UNG (uracil DNA glycosylase) | 1 | 3 | 91.7 | inactive

6 entries from above, arranged by “viability, normalised (%)”, highest first:
target gene | reagent | technical replicate | viability, normalised (%) | activity call
DMC1 (DNA meiotic recombinase 1) | 1 | 1 | 79.2 | active
HDAC3 (histone deacetylase 3) | 1 | 2 | 76.6 | active
FANCM (FA complementation group M) | 1 | 3 | 71.5 | active
DMC1 (DNA meiotic recombinase 1) | 1 | 2 | 63.6 | active
HDAC3 (histone deacetylase 3) | 1 | 1 | 59.6 | active
HDAC3 (histone deacetylase 3) | 1 | 3 | 49.8 | active

Continued.
target gene | reagent | technical replicate | viability, normalised (%) | activity call
CAMK2D (calcium/calmodulin dependent protein kinase II delta) | 1 | 1 | 89.8 | inactive
CAMK2D (calcium/calmodulin dependent protein kinase II delta) | 1 | 1 | 68.8 | active
CAMK2D (calcium/calmodulin dependent protein kinase II delta) | 1 | 2 | 78.2 | active
CAMK2D (calcium/calmodulin dependent protein kinase II delta) | 1 | 2 | 76.9 | active
CAMK2D (calcium/calmodulin dependent protein kinase II delta) | 1 | 3 | 56.9 | active
CAMK2D (calcium/calmodulin dependent protein kinase II delta) | 1 | 3 | 73.1 | active
ACVR2B (activin A receptor type 2B) | 1 | 1 | 71.2 | active
ACVR2B (activin A receptor type 2B) | 1 | 2 | 69.1 | active
ACVR2B (activin A receptor type 2B) | 1 | 3 | 76.8 | active
PTTG2 (pituitary tumor-transforming 2) | 1 | 1 | 36.9 | active
PTTG2 (pituitary tumor-transforming 2) | 1 | 2 | 49 | active
PTTG2 (pituitary tumor-transforming 2) | 1 | 3 | 46.7 | active
MAT2A (methionine adenosyltransferase 2A) | 1 | 1 | 56.4 | active
MAT2A (methionine adenosyltransferase 2A) | 1 | 2 | 64.2 | active
MAT2A (methionine adenosyltransferase 2A) | 1 | 3 | 66.8 | active
DPH7 (diphthamide biosynthesis 7) | 1 | 1 | 79.4 | active
DPH7 (diphthamide biosynthesis 7) | 1 | 2 | 63.4 | active
DPH7 (diphthamide biosynthesis 7) | 1 | 3 | 61.5 | active
MAPK6 (mitogen-activated protein kinase 6) | 1 | 1 | 79.7 | active
MAPK6 (mitogen-activated protein kinase 6) | 1 | 2 | 80.6 | inactive
MAPK6 (mitogen-activated protein kinase 6) | 1 | 3 | 62.5 | active
